Results taken from patent US6602861B1, “Acylated phospholipid drugs” (Research Corporation Technologies, Inc., priority 1992, dated 2003).
Some of these results come from one statement about several compounds together.

System: HIV
Assay: Anti-HIV activity of D-AC2 and PE analogs compared with 12MO (FIG. 7)
Format: cell-based

## COCCCCCCCCCCCC(=O)OC[C@H](COP(=O)(O)OCCN)OC(=O)CCCCCCCCCCCOC [L-PE2, 1,2 di-(12-Methoxydodecanoyl)-sn-glycero-3-phosphoethanolamine]
  increase in activity compared to the PC analogs: 20-50 fold

## CCCCCCCCCCCCCC(=O)OC[C@H](COP(=O)(O)OCCN)OC(=O)CCCCCCCCCCCOC [L-PE1, 1-Myristoyl-2-[12-methoxydodecanoyl]-sn-glycero-3-phosphoethanolamine]
  increase in activity compared to the PC analogs: 20-50 fold
